The subject of the data set is preterm rabbits exposed to hyperoxia. Nature of the data set: quantitative lung proteomic analysis by mass spectrometry. The data set is classed as in vivo, rabbit.

The values that follow come from paper PMC9320886, “Daily Intraperitoneal Administration of Rosiglitazone Does Not Improve Lung Function or Alveolarization in Preterm Rabbits Exposed to Hyperoxia” (Pharmaceutics, 2022).

The structures appear in SMILES notation.

Turning to `CN(CCOc1ccc(CC2SC(=O)NC2=O)cc1)c1ccccn1` (centres unmarked) [RGZ, rosiglitazone], under “daily 1 mg/kg vs vehicle”, the “number of lung proteins significantly downregulated” value is listed as 60, the “number of lung proteins significantly upregulated” value came to 38 and the “significantly modulated pathways (Metascape enrichment)” value is recorded as “did not identify any significantly modulated pathway”. Moreover, under “daily 10 mg/kg vs vehicle”, the “number of lung proteins significantly downregulated” value turned out to be 100 and the “number of lung proteins significantly upregulated” value worked out at 75.
